Where a sequence shows no end group, the ends are not given.
Assay: general procedure: Fmoc solid-phase peptide synthesis; Rink amide MBHA resin (100–200 mesh, 0.4–0.8 mmol/g loading); HATU/DIPEA
Conditions: purification step

| Sequence | step yield |
| --- | --- |
| AKDANNIEDDPVN | 28% |
| AYLIWIRILEDNPSEY | 38% |
| GSLIIENGNCSGDLSTLLPNLTVIRNQVI | 32% |
| HEPKCHKVIEPITN | 44% |
| HKQSDESEFPPSWTRS | 28% |
| IGIDESESIIETIC | 19% |
| ILPVIVDEVVSLKSDTVG | 28% |
| IPRDASLPFLKEVTGSLLVYDTEGPEDL | 28% |
| LFFNYALVIFEMVHLKELGLYNLMNITRGSVRIEKNNELC | 25% |
| MDIRNNLTRLHELENCSVIEGHLQILLMF | 21% |
| MFTLNRNLCPNDV | 40% |
| NLSNLEFDLIEKSNG | 35% |
| PRNHDQSYTDSNHS | 30% |
| QSGWDKNSLFKHSRQI | 40% |
| TLLRLNTIQGSIFN | 37% |
